Results from PMC9144539.
These are yes or no findings as the source states them, for the method shown. Binding calls can cover weak binding; strength is not graded here. Sequences can lack the tags named with a protein.

Legend:
[1] = biological target: T1, GAL4 binding domain fusion of ABI5 (Arabidopsis) (UniProt Q9SJN0); assay: two-hybrid; GAL4 AD fusions (pACT2lox) and GAL4 BD fusions; matings between haploid yeast lines, replica-plated on selective media; growth on -HALW shows activation of the HIS3 and ADE2 reporters
T1 sequence: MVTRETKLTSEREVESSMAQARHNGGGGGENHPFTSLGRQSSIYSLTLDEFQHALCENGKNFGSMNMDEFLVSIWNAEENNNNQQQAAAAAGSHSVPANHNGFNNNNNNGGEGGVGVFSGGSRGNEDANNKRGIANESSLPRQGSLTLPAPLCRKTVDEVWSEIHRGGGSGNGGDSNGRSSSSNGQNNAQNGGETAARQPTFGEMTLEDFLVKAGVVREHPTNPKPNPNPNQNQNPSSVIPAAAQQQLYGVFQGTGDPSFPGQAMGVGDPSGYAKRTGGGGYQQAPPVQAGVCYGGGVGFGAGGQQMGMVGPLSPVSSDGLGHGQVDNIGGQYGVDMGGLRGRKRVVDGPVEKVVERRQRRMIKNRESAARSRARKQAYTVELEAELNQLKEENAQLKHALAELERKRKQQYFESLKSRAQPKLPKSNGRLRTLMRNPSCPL

[2] = biological target: T2, GAL4 binding domain fusion of AFP1 (ABI5-binding protein 1) (Arabidopsis) (UniProt Q9LQ98); assay: as above
T2 sequence: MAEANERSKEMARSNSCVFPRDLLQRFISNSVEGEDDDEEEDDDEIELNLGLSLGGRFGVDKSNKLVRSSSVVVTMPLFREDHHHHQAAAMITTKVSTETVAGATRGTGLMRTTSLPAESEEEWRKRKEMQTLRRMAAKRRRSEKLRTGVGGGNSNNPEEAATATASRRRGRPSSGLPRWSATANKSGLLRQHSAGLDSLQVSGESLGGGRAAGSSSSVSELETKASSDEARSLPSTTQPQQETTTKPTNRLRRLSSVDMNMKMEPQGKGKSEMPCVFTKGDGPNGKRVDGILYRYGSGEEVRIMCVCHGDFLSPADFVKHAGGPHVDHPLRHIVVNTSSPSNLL

In the case of “GAL4 activation domain fusion of RGL3 (AT5G17490), full length (Arabidopsis)”, the binding [1] is reported as “binds” and the binding [2] is reported as “binds”.
